Paper PMC9599860

Chains of the proteins cited; added tags and fusions are not shown. Lines headed by an entry give the natural chain unless they say otherwise; changes in a name come on top.
UniProt P08592: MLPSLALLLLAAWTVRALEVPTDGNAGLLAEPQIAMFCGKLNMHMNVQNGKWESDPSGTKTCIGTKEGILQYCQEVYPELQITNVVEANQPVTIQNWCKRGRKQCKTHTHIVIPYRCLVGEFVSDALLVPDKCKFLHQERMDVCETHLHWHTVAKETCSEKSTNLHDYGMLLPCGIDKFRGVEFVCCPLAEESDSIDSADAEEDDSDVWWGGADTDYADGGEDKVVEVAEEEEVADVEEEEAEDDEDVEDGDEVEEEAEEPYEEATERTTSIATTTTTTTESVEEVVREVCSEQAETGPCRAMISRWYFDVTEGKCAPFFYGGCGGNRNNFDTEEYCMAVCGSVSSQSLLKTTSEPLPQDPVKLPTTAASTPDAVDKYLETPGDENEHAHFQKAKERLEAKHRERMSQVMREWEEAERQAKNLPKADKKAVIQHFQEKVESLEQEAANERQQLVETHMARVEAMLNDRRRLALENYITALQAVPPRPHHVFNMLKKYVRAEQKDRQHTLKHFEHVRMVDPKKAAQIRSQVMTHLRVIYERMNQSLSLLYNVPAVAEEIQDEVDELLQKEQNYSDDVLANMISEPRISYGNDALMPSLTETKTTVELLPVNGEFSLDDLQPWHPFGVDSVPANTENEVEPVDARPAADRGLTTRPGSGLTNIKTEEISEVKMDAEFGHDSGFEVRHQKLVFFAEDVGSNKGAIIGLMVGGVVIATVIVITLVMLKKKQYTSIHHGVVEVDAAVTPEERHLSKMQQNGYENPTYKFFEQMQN

Target: T1, caveolin-1 (rat (endogenous in rat cerebral cortex)) (UniProt P41350)
T1 sequence: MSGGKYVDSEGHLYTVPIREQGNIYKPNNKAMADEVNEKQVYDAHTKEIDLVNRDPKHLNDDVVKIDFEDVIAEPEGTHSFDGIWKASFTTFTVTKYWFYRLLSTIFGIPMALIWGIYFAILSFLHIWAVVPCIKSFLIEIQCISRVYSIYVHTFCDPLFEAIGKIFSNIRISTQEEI
Assay: co-IP; endogenous caveolin-1 immunoprecipitated with anti-caveolin-1 antibody on protein G magnetic particles (Sileks kit) from the cytoplasmic fraction of rat penumbra tissue 24 h and 7 days after photothrombotic stroke and of the cortex of sham-operated rats; co-precipitated C-APP, N-APP or ADAM10 detected by immunoblotting; normal mouse IgG as negative control

| binding | Substance |
| --- | --- |
| binds | C-terminal fragment of amyloid precursor protein (rat (endogenous in rat cerebral cortex)) (domain or fragment) |
| binds | N-terminal fragment of amyloid precursor protein (from UniProt P08592) (domain or fragment) |

No constants are given. Whether binding was seen depends on the method and setting. In cells and extracts the contact can be indirect. Binding can be weak; no strength is given.
